No constants are given. Whether binding was seen depends on the method and setting. Some results given as binding are weak or reduced against the parent protein; the word gives no strength. Sequences can lack the tags named with a protein.

Experimental findings from doi:10.1101/2023.03.13.532366 are described below.

In the experiment the target is T1, mIL-12Rβ1_(D1-D2)-His6 (crystallised with mIL-12B_(C197S)) (mouse) (UniProt Q60837).
T1 sequence: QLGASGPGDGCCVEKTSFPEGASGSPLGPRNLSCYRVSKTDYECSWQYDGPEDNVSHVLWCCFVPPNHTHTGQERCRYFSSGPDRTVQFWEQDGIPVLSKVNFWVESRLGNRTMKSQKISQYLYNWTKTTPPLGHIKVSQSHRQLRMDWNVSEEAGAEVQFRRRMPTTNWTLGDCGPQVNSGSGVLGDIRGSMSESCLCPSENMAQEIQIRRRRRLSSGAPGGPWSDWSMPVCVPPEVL
The experiment is described as follows: crystal structure.

B1: mIL-12B_(C197S) (mIL-12b_(C197S)-His6) (protein, UniProt P43432 23-335)
chain: MWELEKDVYVVEVDWTPDAPGETVNLTCDTPEEDDITWTSDQRHGVIGSGKTLTITVKEFLDAGQYTCHKGGETLSHSHLLLHKKENGIWSTEILKNFKNKTFLKCEAPNYSGRFTCSWLVQRNMDLKFNIKSSSSSPDSRAVTCGMASLSAEKVTLDQRDYEKYSVSCQEDVTSPTAEETLPIELALEARQQNKYENYSTSFFIRDIIKPDPPKNLQMKPLKNSQVEVSWEYPDSWSTPHSYFSLKFFVRIQRKKEKMKETEEGCNQKGAFLVEKTSTEVQCKGGNVCVQAQDRYYNSSCSKWACVPCRVRS
Take B1: the binding result is on record as “binds”.
